Reference: patent publication US5378803A, “Azole-fused peptides and processes for preparation thereof” (Sterling Winthrop Inc., priority 1992, dated 1995)
At least one peptide structure holds a part that was inferred or is arguable (an end, a ring closure or a residue).

Test system: acetylcholine-induced writhing in the mouse
Test: Mouse acetylcholine-induced writhing test
Format: in vivo
Settings: acetylcholine 3.2 mg./kg. intraperitoneally five minutes after injection, protection from writhing

Compound	Intrathecal ED50	Intravenous ED50
CC(C)C[C@H](NC(=O)[C@@H](Cc1c[nH]c2ccccc12)NC(=O)c1nc([C@H](Cc2c[nH]c3ccccc23)NC(=O)[C@@H]2CCCN2)sc1-c1ccccc1)C(=O)N[C@@H](Cc1ccccc1)C(N)=O [Example 2]	1.7 μg/mouse	9.9 mg/kg
CC(C)C[C@H](NC(=O)[C@@H](Cc1c[nH]c2ccccc12)NC(=O)c1nc([C@@H](Cc2c[nH]c3ccccc23)NC(=O)[C@@H]2CCCN2)sc1-c1ccccc1)C(=O)N[C@@H](Cc1ccccc1)C(N)=O [Example 3]	0.78 μg/mouse	11 mg/kg
